According to paper PMC13170675, “A Wnt-induced conformational phospho-switch in DVL3 controls association with Frizzled receptors and Wnt/β-catenin signaling” (Science Advances, 2026):
These are yes or no findings as the source states them, for the method shown.

T1: hDVL3 IDR2 (amino acids 335 to 396), nonphosphorylated (human) (UniProt Q92997)
T1 sequence: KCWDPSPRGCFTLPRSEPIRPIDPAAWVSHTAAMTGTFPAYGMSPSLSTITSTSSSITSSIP

T2: hDVL3 PDZ domain (amino acids 243 to 351) (human) (UniProt Q92997)
T2 sequence: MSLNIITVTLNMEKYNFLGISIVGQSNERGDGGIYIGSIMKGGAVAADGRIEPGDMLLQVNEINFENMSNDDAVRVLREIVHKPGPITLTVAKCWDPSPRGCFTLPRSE


Key:
[1] = molecular target: T1, hDVL3 IDR2 (amino acids 335 to 396), nonphosphorylated (human); test: NMR titration; 1H-15N HSQC of 50 μM 15N-labelled protein, unlabelled partner added in excess or serially; 50 mM KCl, 50 mM phosphate buffer (pH 6.5), 1 mM dEDTA, 25°C; both purified
[2] = molecular target: T2, hDVL3 PDZ domain (amino acids 243 to 351) (human); test: as above

binding [1]	binding [2]	Binder
no binding		hDVL3 PDZ domain (amino acids 243 to 351) (domain or fragment, UniProt Q92997 243-351) MSLNIITVTLNMEKYNFLGISIVGQSNERGDGGIYIGSIMKGGAVAADGRIEPGDMLLQVNEINFENMSNDDAVRVLREIVHKPGPITLTVAKCWDPSPRGCFTLPRSE
	no binding	hDVL3 IDR2 (amino acids 335 to 396), nonphosphorylated (domain or fragment, UniProt Q92997 335-396) KCWDPSPRGCFTLPRSEPIRPIDPAAWVSHTAAMTGTFPAYGMSPSLSTITSTSSSITSSIP
